Results are given in words; binding and its absence hold for the method and conditions named. For some assays here: A result given as binding can be weak or reduced; the word gives no strength.
Key:
[1] = molecular target: T1, mouse ST2 ectodomain (mouse) (UniProt P14719); assay: condition: 20 μM mST2 ectodomain with 25 μM HpARI2:mIL33
T1 sequence: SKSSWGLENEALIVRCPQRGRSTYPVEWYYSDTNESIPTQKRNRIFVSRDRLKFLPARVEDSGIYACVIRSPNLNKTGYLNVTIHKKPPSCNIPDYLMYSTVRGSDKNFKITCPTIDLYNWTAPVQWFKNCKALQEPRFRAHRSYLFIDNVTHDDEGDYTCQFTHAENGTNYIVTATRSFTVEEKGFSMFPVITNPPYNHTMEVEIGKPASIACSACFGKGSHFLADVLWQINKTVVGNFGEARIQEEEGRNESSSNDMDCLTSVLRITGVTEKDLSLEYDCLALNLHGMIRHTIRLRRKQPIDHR

[2] = molecular target: T1, mouse ST2 ectodomain (mouse); assay: SEC

binding [1]	binding [2]	Substance
no binding		HpARI2:mIL33 complex (Heligmosomoides polygyrus bakeri | mouse)
	binds	HpARI3:mIL33 complex (Heligmosomoides polygyrus bakeri | mouse)

Reference: publication doi:10.1101/2023.10.09.561567 (bioRxiv, 2023)
